Experimental data taken from patent EP4647494 (dated 2024).
Strings that start with PEPTIDE1 are HELM notation: dots part the residues, brackets hold end groups and non-standard residues.

Test: general procedure: Fmoc solid-phase peptide synthesis; Rink Amide-AM Resin; HCTU/NMM
Conditions: whole synthesis, analytical HPLC and LC/MS, scale 0.2 mmol

PEPTIDE1{G.K.W.G.F.Y.T.K.V.F.R.L.K.K.W.I.K.K.V.I.C.T.F.G.C.[am]}$PEPTIDE1,PEPTIDE1,21:R3-25:R3$$$V2.0
final HPLC purity: >95%
